# Laboratory results taken from PubChem BioAssay AID1671190 (National Center for Advancing Translational Sciences (NCATS), 2021).
# Amino acid sequences for entries named in this document (tags omitted).
# UniProt P18054, whole entry, looked up: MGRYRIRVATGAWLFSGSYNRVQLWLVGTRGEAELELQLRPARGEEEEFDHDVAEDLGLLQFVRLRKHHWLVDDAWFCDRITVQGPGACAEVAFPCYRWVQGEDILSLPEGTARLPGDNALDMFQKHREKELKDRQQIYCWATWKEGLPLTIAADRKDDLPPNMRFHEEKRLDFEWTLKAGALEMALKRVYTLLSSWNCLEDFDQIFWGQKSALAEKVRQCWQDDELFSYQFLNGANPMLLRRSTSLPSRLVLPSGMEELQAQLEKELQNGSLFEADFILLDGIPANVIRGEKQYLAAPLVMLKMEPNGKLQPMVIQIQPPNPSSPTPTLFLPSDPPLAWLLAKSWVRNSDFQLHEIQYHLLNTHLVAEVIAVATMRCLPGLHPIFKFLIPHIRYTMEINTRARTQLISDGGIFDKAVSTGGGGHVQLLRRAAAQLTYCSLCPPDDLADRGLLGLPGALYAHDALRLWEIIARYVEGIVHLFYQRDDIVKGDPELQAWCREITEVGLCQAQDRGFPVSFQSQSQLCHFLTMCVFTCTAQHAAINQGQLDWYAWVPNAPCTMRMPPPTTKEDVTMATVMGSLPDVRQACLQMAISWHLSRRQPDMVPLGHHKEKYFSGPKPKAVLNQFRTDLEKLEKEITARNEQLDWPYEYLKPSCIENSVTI
# “And” between values parts separate entries of the source, which are not always exact repeats. Equal values may be shown once. About 6,100 (1.1%) of roughly 580,000 compounds were called active. The shares of active, inactive and inconclusive entries below differ from those in the screen. Calls come from the whole dose curve; as a rule, active = well fitted inhibition curve with a large enough effect; inconclusive = small, poorly fitted or top-dose-only effect, or another doubt; inactive = no such curve, though single readings can be large or run the other way. Where the call is inconclusive, the potency comes from a doubtful curve fit.
# Target: Polyunsaturated fatty acid lipoxygenase ALOX12 (Homo sapiens) (UniProt P18054)
# Test: Primary qHTS assay for inhibitors of human arachidonate 12S-lipoxygenase (ALOX12): Round 2
# Conditions: purified 12hLO, xylenol orange hydroperoxide absorbance; activity change, negative = inhibition: at 108 µM (top of the series) unless noted
# In short: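 Hydroperoxide product was detected by ferrous iron/xylenol orange as the 573 to 405 nm absorbance ratio. Arachidonic acid at 40 uM (final) was turned over for 30 min at room temperature by 150 nM human 12hLO, pH 7.0 Hepes buffer, after 15 min compound preincubation.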
# % is set by controls: 0 for no effect and ±100 for the full control effect; potency is the fitted concentration of half-maximal effect.
Compound,Potency,"activity change, negative = inhibition"
Cc1sc2ncnc(NCC3CCCO3)c2c1C (stereo not drawn),"inconclusive: 35.5 µM [inhibitor, partial curve, poor fit]",–
COc1cccc(Oc2c(C)oc3cc(OCC(N)=O)ccc3c2=O)c1,–,inactive: -1.06%
CCCc1nn2c(=O)cc(COc3cccc(NC(=O)c4cccs4)c3)nc2s1,–,inactive: 9.33%
O=C(OCC(=O)c1c[nH]c2ccccc12)c1ccc(F)c(S(=O)(=O)N2CCOCC2)c1,"inconclusive: 31.6 µM [inhibitor, partial curve, poor fit] and inconclusive: 31.6 µM [inhibitor, single point]",–
CN(C)CCCN(C(=O)c1ccc(S(=O)(=O)N2CCc3ccccc32)cc1)c1nc2ccc(F)cc2s1,"inconclusive: 44.7 µM [inhibitor, partial curve, poor fit]",–
COC(=O)c1scc(C)c1N/N=C(\C)c1ccc(F)cc1,–,inconclusive: -41.8% [inhibitor]
O=C(Nc1cccc(C(F)(F)F)c1)C1CCN(S(=O)(=O)c2cccs2)CC1,"inconclusive: 112 µM [inhibitor, partial curve, poor fit]",–
O=C1CN(C(=O)c2cc3cc(Cl)ccc3[nH]2)CCN1,"inconclusive: 39.8 µM [inhibitor, partial curve, poor fit]",–
S=C1NC[C@H](c2ccccc2)N1CCCCC1CCCCC1,active: 35.5 µM,–
S=c1[nH]nc([C@@H]2C[C@H]2c2ccccc2)n1-c1ccccc1,"inconclusive: 39.8 µM [inhibitor, partial curve]",–
Cc1cc(Nc2ccccc2Br)n2nc(C)nc2n1,"inconclusive: 6.31 µM [inhibitor, full curve, poor fit]",–
Cc1ccnc(N/C=C(/NC(=O)c2ccccc2)C(=O)N/N=C\c2ccc(Cl)cc2)n1,–,inactive: -30.8%
CCCn1c(=O)c2ccccc2n(CC(=O)N(C)c2ccccc2)c1=O,"inconclusive: 35.5 µM [inhibitor, partial curve, poor fit]",–
CCn1cc2nc(SCc3cccc(C(F)(F)F)c3)n(Cc3ccc(OC)cc3)c(=O)c2n1,–,inactive: -17%
COCC(=O)N1CCC2(CCCN(c3cccc(-c4ccccc4)c3)C2)CC1,"inconclusive: 31.6 µM [inhibitor, single point]",–
CCCn1c(=O)c2sc(N3CCC(C)CC3)nc2n(CC(=O)Nc2cc(Cl)ccc2C)c1=O,–,inactive: -14.9%
CCCOC(=O)Nc1ccccc1N=C1CCC/C1=C/c1ccccc1,"inconclusive: 5.62 µM [inhibitor, partial curve, poor fit]",–
O=C(NCc1n[nH]c(=S)n1-c1ccccc1)c1ccco1,"inconclusive: 35.5 µM [inhibitor, partial curve, poor fit]",–

# In a second layout: five of the compounds above.
Compound	Potency	activity change, negative = inhibition
COC(=O)c1scc(C)c1N/N=C(\C)c1ccc(F)cc1	–	inconclusive: -41.8% [inhibitor]
O=C(Nc1cccc(C(F)(F)F)c1)C1CCN(S(=O)(=O)c2cccs2)CC1	inconclusive: 112 µM [inhibitor, partial curve, poor fit]	–
O=C1CN(C(=O)c2cc3cc(Cl)ccc3[nH]2)CCN1	inconclusive: 39.8 µM [inhibitor, partial curve, poor fit]	–
S=C1NC[C@H](c2ccccc2)N1CCCCC1CCCCC1	active: 35.5 µM	–
S=c1[nH]nc([C@@H]2C[C@H]2c2ccccc2)n1-c1ccccc1	inconclusive: 39.8 µM [inhibitor, partial curve]	–
